Test results reported in the supplement of paper PMC4604168 (melanoma cell lines).
Some of the results follow. Repeats are few or missing, and single values can be far off.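 Cells were imaged in 1,536-well plates, and nuclei stained with an antibody against cleaved PARP were counted against all DNA-stained nuclei to give the apoptosis fraction. Screening doses were chosen to leave most cells alive, and resting and induced cleaved-PARP levels differ strongly between cell lines.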

Each compound was assayed on CBRC016 (line from a melanoma biopsy) (assay: cleaved PARP positive nuclei fraction relative to DMSO control; melanoma cells; higher = more apoptosis). Settings: library dose: low library concentration; 72 h.

| Compound | cleaved PARP positive nuclei fraction |
| --- | --- |
| NCC(=O)Nc1ccc(-n2nc(C(F)(F)F)cc2-c2ccc3c(ccc4ccccc43)c2)cc1 + Cc1cc(SCc2sc(-c3ccc(C(F)(F)F)c(F)c3)nc2C)ccc1OCC(=O)O [GW0742] (first compound 1 µM, partner dose 2 µM) | 131% |
| C/C(O)=C(\C#N)C(=O)Nc1cc(Br)ccc1Br + Cn1cc(/C=C2\C(=O)Nc3cccnc32)c2ccccc21 [GW441756] (first compound 2 µM, partner dose 0.4 µM) | 21.9% |
| C[As](C)SC[C@H](NC(=O)CC[C@H](N)C(=O)O)C(=O)NCC(=O)O [Darinaparsin] + c1cc(-c2cnn3cc(-c4ccc(OCCN5CCCCC5)cc4)cnc23)ccn1 [Dorsomorphin] (first compound 0.4 µM, partner dose 0.4 µM) | 44% |
| CCc1ccc(CCOc2ccc(CC3SC(=O)NC3=O)cc2)nc1 (stereo unspecified) [pioglitazone] + C/C(O)=C(\C#N)C(=O)Nc1cc(Br)ccc1Br [LFM-A13] (first compound 2 µM, partner dose 2 µM) | 90.3% |
| Nc1cccc2c1CN(C1CCC(=O)NC1=O)C2=O (stereo unspecified) [lenalidomide] + Cc1cc(SCc2sc(-c3ccc(C(F)(F)F)c(F)c3)nc2C)ccc1OCC(=O)O [GW0742] (first compound 1 µM, partner dose 2 µM) | 51.5% |
| Cc1cc(SCc2sc(-c3ccc(C(F)(F)F)c(F)c3)nc2C)ccc1OCC(=O)O + CC(C)CCN1c2nc(Nc3cc(F)c(O)c(F)c3)ncc2N(C)C(=O)C1C [BID1870] (first compound 2 µM, partner dose 0.2 µM) | 132% |
| C[As](C)SC[C@H](NC(=O)CC[C@H](N)C(=O)O)C(=O)NCC(=O)O [Darinaparsin] + COc1cc2ncnc(Nc3ccc(Oc4ccccc4)cc3)c2cc1OC [SrcI1] (first compound 0.4 µM, partner dose 2 µM) | 69.5% |
| COc1ccc(-c2ccc3c(N4CCOCC4)nc(N4C[C@@H](C)O[C@@H](C)C4)nc3n2)cc1CO + Cc1cc(SCc2sc(-c3ccc(C(F)(F)F)c(F)c3)nc2C)ccc1OCC(=O)O [GW0742] (first compound 0.02 µM, partner dose 2 µM) | 52.7% |
| O=S(=O)(c1ccccc1)N(CC(F)(F)F)c1ccc(C(O)(C(F)(F)F)C(F)(F)F)cc1 + C/C(O)=C(\C#N)C(=O)Nc1cc(Br)ccc1Br [LFM-A13] (first compound 1.4 µM, partner dose 2 µM) | 90.9% |
| O=C(O)c1ccc(-c2c[nH]c3ncc(-c4ccccc4)cc23)cc1C1CCCC1 + O=C(Oc1ccc([N+](=O)[O-])cc1)N1CCC(C(O)(c2ccc3c(c2)OCO3)c2ccc3c(c2)OCO3)CC1 [JZL184] (first compound 0.16 µM, partner dose 1 µM) | 160% |
| Cn1nnc2c(C(N)=O)ncn2c1=O [temozolomide] + O=C(Oc1ccc([N+](=O)[O-])cc1)N1CCC(C(O)(c2ccc3c(c2)OCO3)c2ccc3c(c2)OCO3)CC1 [JZL184] (first compound 2 µM, partner dose 1 µM) | 79.4% |
| Cc1cc(SCc2sc(-c3ccc(C(F)(F)F)c(F)c3)nc2C)ccc1OCC(=O)O + COc1cc(N2CCC(N3CCN(C)CC3)CC2)ccc1Nc1ncc(Cl)c(Nc2ccccc2S(=O)(=O)C(C)C)n1 [NVP-TAE684] (first compound 2 µM, partner dose 0.08 µM) | 217% |
| CCN(CC)CCCCNc1ncc2cc(-c3cc(OC)cc(OC)c3)c(NC(=O)NC(C)(C)C)nc2n1 + C/C(O)=C(\C#N)C(=O)Nc1cc(Br)ccc1Br [LFM-A13] (first compound 0.1 µM, partner dose 2 µM) | 155% |
| CN(NC(=O)CC(=O)NN(C)C(=S)c1ccccc1)C(=S)c1ccccc1 + C/C(O)=C(\C#N)C(=O)Nc1cc(Br)ccc1Br [LFM-A13] (first compound 0.006 µM, partner dose 2 µM) | 277% |
| CCN(CC)CCCCNc1ncc2cc(-c3cc(OC)cc(OC)c3)c(NC(=O)NC(C)(C)C)nc2n1 + Cc1cc(SCc2sc(-c3ccc(C(F)(F)F)c(F)c3)nc2C)ccc1OCC(=O)O [GW0742] (first compound 0.1 µM, partner dose 2 µM) | 50.4% |
| Cc1cc(SCc2sc(-c3ccc(C(F)(F)F)c(F)c3)nc2C)ccc1OCC(=O)O + Cn1cc(/C=C2\C(=O)Nc3cccnc32)c2ccccc21 [GW441756] (first compound 2 µM, partner dose 0.4 µM) | 129% |
| CCN(CC)CCCCNc1ncc2cc(-c3cc(OC)cc(OC)c3)c(NC(=O)NC(C)(C)C)nc2n1 + O=C(Oc1ccc([N+](=O)[O-])cc1)N1CCC(C(O)(c2ccc3c(c2)OCO3)c2ccc3c(c2)OCO3)CC1 [JZL184] (first compound 0.1 µM, partner dose 1 µM) | 74.9% |
| O=C(Nc1ccccc1)c1cc([N+](=O)[O-])ccc1Cl + O=C(Oc1ccc([N+](=O)[O-])cc1)N1CCC(C(O)(c2ccc3c(c2)OCO3)c2ccc3c(c2)OCO3)CC1 [JZL184] (first compound 2 µM, partner dose 1 µM) | 56.2% |
| Oc1nc(-c2ccc(C(F)(F)F)cc2)nc2c1CSCC2 + O=C(Oc1ccc([N+](=O)[O-])cc1)N1CCC(C(O)(c2ccc3c(c2)OCO3)c2ccc3c(c2)OCO3)CC1 [JZL184] (first compound 2 µM, partner dose 1 µM) | 64.4% |
| C[As](C)SC[C@H](NC(=O)CC[C@H](N)C(=O)O)C(=O)NCC(=O)O [Darinaparsin] + O=c1cc(-c2cccc3c2Sc2ccccc2S3)oc(N2CCOCC2)c1 [KU55933] (first compound 0.4 µM, partner dose 1 µM) | 109% |
| C[As](C)SC[C@H](NC(=O)CC[C@H](N)C(=O)O)C(=O)NCC(=O)O [Darinaparsin] + O=C(O)C(=O)Nc1sc2c(c1C(=O)O)CCNC2 [TCS401] (first compound 0.4 µM, partner dose 1.66667 µM) | 25.2% |

Retrieved one by one from the entries so far, 2 records:

| Compound | cleaved PARP positive nuclei fraction |
| --- | --- |
| C[As](C)SC[C@H](NC(=O)CC[C@H](N)C(=O)O)C(=O)NCC(=O)O [Darinaparsin] + COc1cc2ncnc(Nc3ccc(Oc4ccccc4)cc3)c2cc1OC [SrcI1] (first compound 0.4 µM, partner dose 2 µM) | 69.5% |
| Cc1cc(SCc2sc(-c3ccc(C(F)(F)F)c(F)c3)nc2C)ccc1OCC(=O)O + COc1cc(N2CCC(N3CCN(C)CC3)CC2)ccc1Nc1ncc(Cl)c(Nc2ccccc2S(=O)(=O)C(C)C)n1 [NVP-TAE684] (first compound 2 µM, partner dose 0.08 µM) | 217% |
